These are yes or no findings as the source states them, for the method shown. In cells and extracts the contact can be indirect. Some binding calls cover weakened binding; strength is not graded here.
Tests used:
Test in all cases: co-IP; endogenous proteins from HEK293T whole cell extract (2.5 mg, 2 h, 4 °C; 50 mM Tris-HCl pH 7.5, 150 mM NaCl, 1% Triton X-100); Protein G agarose with primary antibody; western blot
[1] = molecular target: 53BP1 (endogenous, HEK293T) (human (endogenous in HEK293T)) (UniProt Q12888)
[2] = molecular target: BRCA1 (endogenous, HEK293T) (human (endogenous in HEK293T)) (UniProt P38398)
[3] = molecular target: RAD50 (endogenous, HEK293T) (human (endogenous in HEK293T)) (UniProt Q92878)

Amino acid sequences for entries named in this document (tags omitted).
UniProt Q12888: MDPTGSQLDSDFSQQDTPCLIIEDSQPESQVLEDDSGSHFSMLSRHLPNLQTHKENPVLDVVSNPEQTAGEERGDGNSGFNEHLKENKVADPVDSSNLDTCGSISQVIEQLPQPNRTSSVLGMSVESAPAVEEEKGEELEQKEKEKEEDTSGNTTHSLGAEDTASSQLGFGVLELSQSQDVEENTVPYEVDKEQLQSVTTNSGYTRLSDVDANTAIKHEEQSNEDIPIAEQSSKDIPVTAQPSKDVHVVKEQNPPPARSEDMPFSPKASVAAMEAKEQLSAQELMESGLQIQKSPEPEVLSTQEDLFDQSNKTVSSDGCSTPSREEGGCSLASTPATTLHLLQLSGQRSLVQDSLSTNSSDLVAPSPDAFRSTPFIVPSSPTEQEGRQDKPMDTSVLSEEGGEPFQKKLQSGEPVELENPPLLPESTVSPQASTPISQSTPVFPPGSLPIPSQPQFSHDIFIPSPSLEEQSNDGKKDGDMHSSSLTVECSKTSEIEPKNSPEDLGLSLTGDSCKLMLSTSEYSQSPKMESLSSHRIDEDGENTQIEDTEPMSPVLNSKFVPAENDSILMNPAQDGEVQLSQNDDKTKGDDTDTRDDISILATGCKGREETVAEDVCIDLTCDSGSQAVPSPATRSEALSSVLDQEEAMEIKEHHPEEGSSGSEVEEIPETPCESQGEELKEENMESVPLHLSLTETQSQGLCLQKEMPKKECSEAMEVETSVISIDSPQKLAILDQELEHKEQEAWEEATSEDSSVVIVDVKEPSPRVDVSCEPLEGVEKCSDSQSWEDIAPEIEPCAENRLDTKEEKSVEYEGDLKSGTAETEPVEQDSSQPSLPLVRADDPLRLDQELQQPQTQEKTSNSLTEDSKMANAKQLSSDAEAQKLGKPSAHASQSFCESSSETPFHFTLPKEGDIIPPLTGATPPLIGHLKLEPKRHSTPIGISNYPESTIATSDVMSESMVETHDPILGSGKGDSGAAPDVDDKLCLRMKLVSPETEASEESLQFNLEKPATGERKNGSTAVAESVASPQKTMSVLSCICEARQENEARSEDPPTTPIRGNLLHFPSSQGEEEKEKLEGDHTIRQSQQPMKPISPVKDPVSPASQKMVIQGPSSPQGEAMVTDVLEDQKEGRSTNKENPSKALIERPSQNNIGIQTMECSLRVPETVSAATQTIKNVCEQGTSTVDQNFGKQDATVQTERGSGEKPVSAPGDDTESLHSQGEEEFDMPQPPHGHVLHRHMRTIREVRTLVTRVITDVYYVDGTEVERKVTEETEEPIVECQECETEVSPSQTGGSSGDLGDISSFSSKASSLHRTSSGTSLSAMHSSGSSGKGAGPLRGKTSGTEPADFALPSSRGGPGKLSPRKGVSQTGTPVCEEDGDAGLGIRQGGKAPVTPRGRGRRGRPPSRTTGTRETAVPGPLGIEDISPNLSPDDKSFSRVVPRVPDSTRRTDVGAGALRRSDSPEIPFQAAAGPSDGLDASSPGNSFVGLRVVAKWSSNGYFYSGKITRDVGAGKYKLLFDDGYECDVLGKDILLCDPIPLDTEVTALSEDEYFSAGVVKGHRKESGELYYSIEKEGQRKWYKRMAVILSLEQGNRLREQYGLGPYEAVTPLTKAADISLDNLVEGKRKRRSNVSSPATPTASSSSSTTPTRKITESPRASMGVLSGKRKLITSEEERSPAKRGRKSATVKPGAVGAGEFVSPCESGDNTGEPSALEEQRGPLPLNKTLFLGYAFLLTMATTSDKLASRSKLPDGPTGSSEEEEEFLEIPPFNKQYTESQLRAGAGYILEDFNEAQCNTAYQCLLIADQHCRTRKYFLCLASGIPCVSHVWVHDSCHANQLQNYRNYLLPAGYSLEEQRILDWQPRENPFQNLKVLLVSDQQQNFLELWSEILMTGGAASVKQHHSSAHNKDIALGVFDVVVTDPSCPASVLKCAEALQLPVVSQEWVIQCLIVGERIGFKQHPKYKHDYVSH
UniProt P38398: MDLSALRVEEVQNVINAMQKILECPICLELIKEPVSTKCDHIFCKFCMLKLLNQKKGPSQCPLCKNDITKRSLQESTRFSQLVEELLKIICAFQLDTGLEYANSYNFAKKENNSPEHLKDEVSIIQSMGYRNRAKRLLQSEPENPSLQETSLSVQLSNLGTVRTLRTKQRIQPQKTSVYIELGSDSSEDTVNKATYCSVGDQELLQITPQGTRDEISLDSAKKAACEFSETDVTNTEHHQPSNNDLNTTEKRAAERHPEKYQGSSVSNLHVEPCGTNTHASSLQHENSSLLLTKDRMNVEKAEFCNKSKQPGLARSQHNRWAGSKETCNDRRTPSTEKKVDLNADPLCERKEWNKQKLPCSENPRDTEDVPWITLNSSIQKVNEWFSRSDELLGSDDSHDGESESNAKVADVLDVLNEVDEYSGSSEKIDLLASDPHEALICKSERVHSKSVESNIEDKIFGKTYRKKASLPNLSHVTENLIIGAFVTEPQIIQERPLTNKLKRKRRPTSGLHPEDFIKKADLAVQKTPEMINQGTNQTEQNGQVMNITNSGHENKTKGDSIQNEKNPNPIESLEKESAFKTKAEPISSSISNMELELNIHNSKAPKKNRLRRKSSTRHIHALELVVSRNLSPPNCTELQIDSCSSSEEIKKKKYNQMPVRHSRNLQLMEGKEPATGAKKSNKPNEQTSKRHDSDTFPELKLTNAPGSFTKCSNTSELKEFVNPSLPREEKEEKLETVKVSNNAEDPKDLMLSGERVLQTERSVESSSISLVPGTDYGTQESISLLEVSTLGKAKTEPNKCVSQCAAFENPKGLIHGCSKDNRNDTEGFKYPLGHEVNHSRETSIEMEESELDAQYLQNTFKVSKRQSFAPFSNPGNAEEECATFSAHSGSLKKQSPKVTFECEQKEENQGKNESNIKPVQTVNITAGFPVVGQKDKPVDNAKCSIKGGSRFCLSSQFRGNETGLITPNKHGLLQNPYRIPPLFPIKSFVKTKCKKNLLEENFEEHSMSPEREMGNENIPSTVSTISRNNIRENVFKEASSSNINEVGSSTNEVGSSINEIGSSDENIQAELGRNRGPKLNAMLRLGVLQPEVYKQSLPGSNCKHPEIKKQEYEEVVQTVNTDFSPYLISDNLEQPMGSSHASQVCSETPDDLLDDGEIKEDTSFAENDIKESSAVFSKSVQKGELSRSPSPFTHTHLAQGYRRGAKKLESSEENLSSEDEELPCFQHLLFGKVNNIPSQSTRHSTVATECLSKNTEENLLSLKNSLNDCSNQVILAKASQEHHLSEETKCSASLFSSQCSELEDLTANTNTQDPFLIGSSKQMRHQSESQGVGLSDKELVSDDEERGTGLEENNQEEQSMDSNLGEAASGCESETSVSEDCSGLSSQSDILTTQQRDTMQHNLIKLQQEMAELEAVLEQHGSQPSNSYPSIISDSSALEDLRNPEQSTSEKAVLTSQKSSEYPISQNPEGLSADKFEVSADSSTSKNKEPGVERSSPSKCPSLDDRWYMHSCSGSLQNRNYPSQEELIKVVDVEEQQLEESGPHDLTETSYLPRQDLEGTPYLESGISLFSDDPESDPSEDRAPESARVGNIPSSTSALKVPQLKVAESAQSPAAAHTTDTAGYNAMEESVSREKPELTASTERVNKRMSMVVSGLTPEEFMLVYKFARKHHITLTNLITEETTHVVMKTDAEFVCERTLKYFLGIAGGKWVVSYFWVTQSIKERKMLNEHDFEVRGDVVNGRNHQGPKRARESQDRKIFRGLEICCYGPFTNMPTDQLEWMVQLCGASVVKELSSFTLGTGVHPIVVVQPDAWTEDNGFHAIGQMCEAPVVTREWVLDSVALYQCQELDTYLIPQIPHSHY
UniProt Q92878: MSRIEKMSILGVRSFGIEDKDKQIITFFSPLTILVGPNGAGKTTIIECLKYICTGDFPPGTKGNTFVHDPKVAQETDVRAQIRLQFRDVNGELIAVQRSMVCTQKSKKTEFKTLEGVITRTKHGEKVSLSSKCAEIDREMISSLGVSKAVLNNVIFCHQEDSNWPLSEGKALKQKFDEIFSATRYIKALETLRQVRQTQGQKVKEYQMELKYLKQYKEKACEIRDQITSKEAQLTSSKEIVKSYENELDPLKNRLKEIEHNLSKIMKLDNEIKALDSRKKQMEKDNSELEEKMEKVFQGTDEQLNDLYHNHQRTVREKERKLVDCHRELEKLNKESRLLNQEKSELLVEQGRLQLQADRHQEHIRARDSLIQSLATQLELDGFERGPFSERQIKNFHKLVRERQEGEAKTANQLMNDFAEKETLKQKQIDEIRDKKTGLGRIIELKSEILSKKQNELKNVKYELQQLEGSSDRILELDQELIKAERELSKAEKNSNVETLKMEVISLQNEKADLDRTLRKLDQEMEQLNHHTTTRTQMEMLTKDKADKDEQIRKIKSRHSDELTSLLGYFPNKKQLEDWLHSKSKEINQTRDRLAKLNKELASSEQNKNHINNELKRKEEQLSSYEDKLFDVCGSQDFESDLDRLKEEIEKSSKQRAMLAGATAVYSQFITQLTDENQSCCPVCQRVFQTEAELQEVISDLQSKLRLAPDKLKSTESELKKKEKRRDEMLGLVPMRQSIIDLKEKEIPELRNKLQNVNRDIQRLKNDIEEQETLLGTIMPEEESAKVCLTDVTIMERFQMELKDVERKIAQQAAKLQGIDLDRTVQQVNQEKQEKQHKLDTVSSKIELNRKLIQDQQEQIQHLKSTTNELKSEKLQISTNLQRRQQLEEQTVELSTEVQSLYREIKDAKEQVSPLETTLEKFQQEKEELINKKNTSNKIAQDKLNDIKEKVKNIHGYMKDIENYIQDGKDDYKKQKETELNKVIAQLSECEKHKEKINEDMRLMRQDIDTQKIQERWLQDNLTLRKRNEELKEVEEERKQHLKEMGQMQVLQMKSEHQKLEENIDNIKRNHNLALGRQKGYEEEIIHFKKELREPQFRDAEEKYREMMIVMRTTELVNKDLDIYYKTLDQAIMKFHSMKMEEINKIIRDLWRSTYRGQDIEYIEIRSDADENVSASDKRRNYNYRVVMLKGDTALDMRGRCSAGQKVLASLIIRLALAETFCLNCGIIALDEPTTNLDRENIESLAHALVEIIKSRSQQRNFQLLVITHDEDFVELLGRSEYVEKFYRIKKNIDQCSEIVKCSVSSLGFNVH
UniProt Q14244: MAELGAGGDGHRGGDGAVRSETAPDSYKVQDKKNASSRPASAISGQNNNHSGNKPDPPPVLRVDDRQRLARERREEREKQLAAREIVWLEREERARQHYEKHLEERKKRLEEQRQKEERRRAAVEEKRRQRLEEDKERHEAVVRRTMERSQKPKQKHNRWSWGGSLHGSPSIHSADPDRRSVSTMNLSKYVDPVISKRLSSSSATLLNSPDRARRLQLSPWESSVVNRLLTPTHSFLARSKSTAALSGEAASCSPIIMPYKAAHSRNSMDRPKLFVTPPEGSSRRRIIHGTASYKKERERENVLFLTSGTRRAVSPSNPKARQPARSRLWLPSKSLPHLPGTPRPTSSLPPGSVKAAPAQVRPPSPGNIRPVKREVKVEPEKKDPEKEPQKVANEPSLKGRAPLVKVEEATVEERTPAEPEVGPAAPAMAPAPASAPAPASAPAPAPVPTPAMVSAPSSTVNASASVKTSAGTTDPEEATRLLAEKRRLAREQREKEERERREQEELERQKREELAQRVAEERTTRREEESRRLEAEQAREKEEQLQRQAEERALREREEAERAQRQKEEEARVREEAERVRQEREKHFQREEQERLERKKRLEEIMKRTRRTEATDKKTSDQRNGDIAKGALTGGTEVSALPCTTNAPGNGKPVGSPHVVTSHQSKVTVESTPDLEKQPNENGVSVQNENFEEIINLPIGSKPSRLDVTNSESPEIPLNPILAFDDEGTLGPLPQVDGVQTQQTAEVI

Measured: binding

MAP7 (endogenous, HEK293T) (from UniProt Q14244 1-749)
binds: all assays above

From publication PMC9958362
